Measured values taken from publication PMC12043106, “Insight into antistaphylococcal effect of chlorinated 1-hydroxynaphthalene-2-carboxanilides” (ADMET & DMPK, 2025).

Assay: in vitro
Protocol: Cytotoxicity of the compounds was determined using an LDH assay kit (Roche, Mannheim, Germany) as described previously. Human monocytic leukemia THP-1 cells (European Collection of Cell Cultures, Salisbury, UK) were exposed for 24 h at 37 °C to various compound concentrations ranging from 0.37 to 30 μM in RPMI 1640 medium. For LDH assays, cells were seeded into 96-well plates (5×10^4 cells/well in 100 μL of culture medium) in triplicate in serum-free RPMI 1640 medium and measurements were taken 24 h after the treatment with the compounds. The maximum concentration of DMSO (Sigma) in the assays never exceeded 0.1 %. […] The median lethal dose values, LC50, were deduced through the production of a dose-response curve. All data from three independent experiments were evaluated using GraphPad Prism 5.00 software.

SMILES: O=C(O)c1cn(C2CC2)c2cc(N3CCNCC3)c(F)cc2c1=O [CPX, ciprofloxacin, reference compound]
- CC50 at 24 h: 0.7 ± 0.09 µM
